Data from paper PMC10180863.
No constants are given. Whether binding was seen depends on the method and setting. For some of these results: In cells and extracts the contact can be indirect. Some results given as binding are weak or reduced against the parent protein; the word gives no strength. Tags and fused reporters may be left off the sequences shown. Values belong to the binder of their own block, whether it stands above or below them.

Key:
[1] = molecular target: T1, FLAG-conjugated CRK2 (CPK-related protein kinase 2), cell-free (Arabidopsis thaliana) (UniProt Q9LJL9); assay: AlphaScreen or HTRF; AlphaScreen luminescence; biotinylated PBL27 and FLAG-conjugated kinases from cell-free synthesis; E. coli dihydrofolate reductase as control protein; n = 3; method per ref. 29
T1 sequence: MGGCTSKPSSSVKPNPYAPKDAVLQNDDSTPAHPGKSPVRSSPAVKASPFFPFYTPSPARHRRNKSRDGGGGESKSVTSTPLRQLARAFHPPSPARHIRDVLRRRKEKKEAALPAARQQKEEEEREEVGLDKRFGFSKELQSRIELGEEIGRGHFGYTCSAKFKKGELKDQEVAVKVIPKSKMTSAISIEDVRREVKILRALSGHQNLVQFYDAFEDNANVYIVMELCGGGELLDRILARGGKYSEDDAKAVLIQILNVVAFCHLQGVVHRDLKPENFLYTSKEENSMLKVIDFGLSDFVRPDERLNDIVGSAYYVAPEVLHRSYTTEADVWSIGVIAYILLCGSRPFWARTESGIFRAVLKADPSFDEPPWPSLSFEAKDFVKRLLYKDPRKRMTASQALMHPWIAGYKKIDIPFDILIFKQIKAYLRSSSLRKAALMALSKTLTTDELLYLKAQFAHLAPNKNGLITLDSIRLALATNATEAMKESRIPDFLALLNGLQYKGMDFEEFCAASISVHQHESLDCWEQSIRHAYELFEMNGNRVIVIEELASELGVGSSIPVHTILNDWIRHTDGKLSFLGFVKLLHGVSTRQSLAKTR

[2] = molecular target: T2, FLAG-conjugated CRK3 (CPK-related protein kinase 3), cell-free (Arabidopsis thaliana) (UniProt Q9ZUZ2); assay: as above
T2 sequence: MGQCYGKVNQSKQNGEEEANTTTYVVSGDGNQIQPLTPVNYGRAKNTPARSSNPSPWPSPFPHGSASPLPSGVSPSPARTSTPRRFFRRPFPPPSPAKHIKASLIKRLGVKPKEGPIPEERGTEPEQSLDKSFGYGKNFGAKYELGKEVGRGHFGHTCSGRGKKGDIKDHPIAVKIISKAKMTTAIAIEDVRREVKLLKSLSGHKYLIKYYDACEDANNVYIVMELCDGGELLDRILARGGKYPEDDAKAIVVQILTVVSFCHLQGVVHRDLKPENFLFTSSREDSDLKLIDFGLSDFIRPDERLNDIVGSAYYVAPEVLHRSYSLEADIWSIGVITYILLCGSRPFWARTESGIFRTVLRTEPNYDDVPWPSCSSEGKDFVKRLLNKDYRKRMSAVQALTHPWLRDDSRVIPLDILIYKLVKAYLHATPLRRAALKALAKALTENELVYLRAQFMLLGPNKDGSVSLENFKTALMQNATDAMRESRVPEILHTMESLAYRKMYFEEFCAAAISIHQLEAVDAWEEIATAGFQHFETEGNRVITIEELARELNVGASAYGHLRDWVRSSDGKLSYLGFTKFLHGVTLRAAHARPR

[3] = molecular target: T3, FLAG-tagged CRK2 (CRK2-FLAG) (Arabidopsis thaliana) (UniProt Q9LJL9); assay: co-IP; PBL27-HA and kinase-FLAG co-expressed in N. benthamiana leaf cells; total proteins precipitated with anti-FLAG (DYKDDDDK) magnetic beads overnight at 4 °C, washed with TBS with 0.5% NP-40; blots with anti-HA and anti-FLAG
T3 sequence: T1 sequence

[4] = molecular target: T4, FLAG-tagged CRK3 (CRK3-FLAG) (Arabidopsis thaliana) (UniProt Q9ZUZ2); assay: as above
T4 sequence: T2 sequence

- binding [1]: binds
- binding [2]: binds
B1: biotinylated recombinant PBL27 protein (PBS1-like 27) (enzyme, UniProt Q1PDV6 1-513)
chain: MSGCLPCFGSSAKDAASKDSVKKELSAKDGSVTQSHHISLDKSKSRRGPEQKKELTAPKEGPTAHIAAQTFTFRELAAATKNFRPECLLGEGGFGRVYKGRLETTGQIVAVKQLDRNGLQGNREFLVEVLMLSLLHHPNLVNLIGYCADGDQRLLVYEYMPLGSLEDHLHDLPPDKEPLDWSTRMTIAAGAAKGLEYLHDKANPPVIYRDLKSSNILLGDGYHPKLSDFGLAKLGPVGDKTHVSTRVMGTYGYCAPEYAMTGQLTLKSDVYSFGVVFLELITGRKAIDNARAPGEHNLVAWARPLFKDRRKFPKMADPSLQGRYPMRGLYQALAVAAMCLQEQAATRPLIGDVVTALTYLASQTFDPNAPSGQNSRSGSGPPFIRTRDDRRSLGDGSSLDSPAETRSRLGSPATHKNSPDYRRRDMVREVNAGSEGGSETGGGSGRKWGLSDLEGQESQRGSPASVGRSSRGTPRNRDLDRERAVAEAKVWGENWRERKRATNGPGSFDSTND
modifications: biotin (biotin ligation site of the tag)

- binding [3]: binds
- binding [4]: binds
B2: HA-tagged PBL27 (PBL27-HA) (enzyme, UniProt Q1PDV6 1-513)
chain: B1 chain
